Measured values from patent US7488712B2 (Kyushu Institute of Technology, priority 2002, dated 2009).

Test: general procedure: solution-phase peptide synthesis; HBTU/HOBt.H2O/triethylamine; HATU/DIEA for cyclization
Details: coupling step

Row | Substance | step yield [% yield]
1 | Boc-L-Ab8-D-Tyr(Me)-L-Ile-D-Pro-OBzl | 88
2 | Boc-L-Ab7-D-Tyr(Me)-L-Ile-D-Pro-OBzl | 94
3 | Boc-D-Tyr(Me)-L-Ile-L-Pro-L-Ab7-OBzl | 61
4 | Boc-L-Ab9-D-Tyr(Me)-L-Ile-D-Pro-OBzl | 79
5 | Boc-D-Tyr(Me)-L-Ile-D-Pro-L-Ab6-OTmse | 64

Same assay, conditions: cyclisation step

Row | Substance | cyclisation yield
6 | cyclo(-L-Ab6-D-Tyr(Me)-L-Ile-D-Pro-) | (23%)
7 | cyclo(-L-A(OAt)6-D-Tyr(Me)-L-Ile-D-Pro-) | (27%)
8 | cyclo(-L-Ab7-D-Tyr(Me)-L-Ile-L-Pip-) | 61%
9 | cyclo(-L-Ab7-D-Tyr(Me)-L-Ile-D-Pro-) | (64%)
10 | cyclo(-L-Ab7-D-Tyr(Me)-L-Ile-D-Pip-) | 39%
11 | cyclo(-L-Ab7-D-Tyr(Me)-L-Ile-L-Pro-) | (21%)
12 | cyclo(-L-Ab9-D-Tyr(Me)-L-Ile-D-Pro-) | (61%)
13 | cyclo(-L-Ab8-D-Tyr(Me)-L-Ile-D-Pro-) | (55%)

Same assay, conditions: late stage modification step

Row | Substance | step yield
14 | cyclo(-L-Am7(SMEt)-D-Tyr(Me)-L-Ile-D-Pro-) | 11%
15 | H-L-Ab7-D-Tyr(Me)-L-Ile-D-Pro-OH.TFA | 97% yield
16 | H-D-Tyr(Me)-L-Ile-D-Pro-L-Ab6-OH.TFA | 96% yield
17 | cyclo(-L-Am6(Ac)-D-Tyr(Me)-L-Ile-D-Pro-) | (79%)
18 | cyclo(-L-Am8(Ac)-D-Tyr(Me)-L-Ile-D-Pro-) | (84%)
19 | H-L-Ab8-D-Tyr(Me)-L-Ile-D-Pro-OH.TFA | 97% yield
20 | cyclo(-L-Am7(Ac)-D-Tyr(Me)-L-Ile-L-Pro-) | (76%)
21 | cyclo(-L-Am9(Ac)-D-Tyr(Me)-L-Ile-D-Pro-) | (77%)
22 | cyclo(-L-Am7(Ac)-D-Tyr(Me)-L-Ile-D-Pip-) | (66%)
23 | cyclo(-L-Am7(Ac)-D-Tyr(Me)-L-Ile-L-Pip-) | (86%)
24 | cyclo(-L-Am7(SMe)-D-Tyr(Me)-L-Ile-D-Pro-) | 65%
25 | cyclo(-L-Am7(SEll)-D-Tyr(Me)-L-Ile-D-Pro-) | 9.3%
26 | H-D-Tyr(Me)-L-Ile-L-Pro-L-Ab7-OH.TFA | 69% yield
27 | cyclo(-L-Am7(S4Py)-D-Tyr(Me)-L-Ile-D-Pro-) | 13%
28 | cyclo(-L-Am7(S2Py)-D-Tyr(Me)-L-Ile-D-Pro-) | 38%
29 | H-L-Ab9-D-Tyr(Me)-L-Ile-D-Pro-OH.TFA | 90% yield
30 | cyclo(-L-Am7(Ac)-D-Tyr(Me)-L-Ile-D-Pro-) | (89%)

Same assay, conditions: oxidative folding step

Row | Substance | oxidative folding yield
31 | cyclo(-L-Am9(-)-D-Tyr(Me)-L-Ile-D-Pro-SS-dimer (SCOP 308) | (98%)
32 | cyclo(-L-Am6(-)-D-Tyr(Me)-L-Ile-D-Pro-SS-dimer (SCOP 302) | (78%)
33 | cyclo(-L-Am8(-)-D-Tyr(Me)-L-Ile-D-Pro-SS-dimer (SCOP 306) | (81%)
34 | cyclo(-L-Am7(-)-D-Tyr(Me)-L-Ile-D-Pip-(SS-dimer: SCOP 300) | (36%)
35 | cyclo(-L-Am7(-)-D-Tyr(Me)-L-Ile-D-Pro-) SS-dimer (SCOP 304) | (89%)
36 | cyclo(-L-Am7(-)-D-Tyr(Me)-L-Ile-L-Pro-) (SS-dimer: SCOP 296) | (42%)
37 | cyclo(-L-Am7(-)-D-Tyr(Me)-L-Ile-L-Pip-(SS-dimer: SCOP 298) | (78%)
